Results on 3 sequences are retold here after publication PMC4951782.

Chains of the proteins cited; added tags and fusions are not shown.
UniProt Q76DI3, entry or part of it: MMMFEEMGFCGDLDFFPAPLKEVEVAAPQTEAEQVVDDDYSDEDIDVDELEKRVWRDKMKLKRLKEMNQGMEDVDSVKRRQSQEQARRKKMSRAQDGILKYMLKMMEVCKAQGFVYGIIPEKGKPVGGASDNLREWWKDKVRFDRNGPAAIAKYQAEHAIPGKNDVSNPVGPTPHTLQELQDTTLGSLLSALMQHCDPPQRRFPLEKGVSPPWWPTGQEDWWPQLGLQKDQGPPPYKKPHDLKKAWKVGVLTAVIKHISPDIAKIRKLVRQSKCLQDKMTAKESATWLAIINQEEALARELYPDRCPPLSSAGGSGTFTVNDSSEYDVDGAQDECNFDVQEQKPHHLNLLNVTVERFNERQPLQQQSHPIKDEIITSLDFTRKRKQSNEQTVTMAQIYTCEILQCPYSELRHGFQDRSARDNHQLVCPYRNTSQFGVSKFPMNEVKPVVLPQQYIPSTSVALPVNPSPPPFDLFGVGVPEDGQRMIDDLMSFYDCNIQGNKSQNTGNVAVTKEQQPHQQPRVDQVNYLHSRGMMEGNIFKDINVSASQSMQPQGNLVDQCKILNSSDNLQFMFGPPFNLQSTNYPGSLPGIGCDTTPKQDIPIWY

Construct, isoform or probe ends are uncertain for at least one entry. At least one verdict was read from the data and is not stated in words by the source.

This data set concerns the target GST-LeEIL4 (Solanum lycopersicum) (UniProt Q76DI3). Briefly: EMSA. To be noted: 200-fold unlabeled probe used as competitor in separate reactions; DIG Gel Shift Kit (Roche) per manufacturer's instructions; pH and temperature not stated; polyacrylamide gel, 200-fold unlabeled competitor; recombinant protein; residues 1-605; protein details: N-terminal GST (pGEX-4T-1); label: DIG-ddUTP (3' end labeling).
Consider “ATAAATATATAAATTTCATTCAAAAAAAATTGAAGATCTC (double strand) [probe 2, PERE-like element -857 to -851]”, for which the binding result is listed as “binds”. Next, “ATAAATTGAACGATACATTCAAATAAGTACTAACGATTAT (double strand) [probe 3, PERE-like element -787 to -781]”: “binds”; “TATAGATATTTTAAACATTTTGAATTATCAATTATTGTGA (double strand) [probe 1, PERE-like element -920 to -914]”: “binds”.
